No constants are given. Whether binding was seen depends on the method and setting. Binding seen in cells or lysates may run through a third protein. A yes stands for co-enrichment or nearness to the bait. Other partners may have been found.

Sequences of proteins named here, by UniProt entry; tags and fusion partners are left off.
UniProt O95758: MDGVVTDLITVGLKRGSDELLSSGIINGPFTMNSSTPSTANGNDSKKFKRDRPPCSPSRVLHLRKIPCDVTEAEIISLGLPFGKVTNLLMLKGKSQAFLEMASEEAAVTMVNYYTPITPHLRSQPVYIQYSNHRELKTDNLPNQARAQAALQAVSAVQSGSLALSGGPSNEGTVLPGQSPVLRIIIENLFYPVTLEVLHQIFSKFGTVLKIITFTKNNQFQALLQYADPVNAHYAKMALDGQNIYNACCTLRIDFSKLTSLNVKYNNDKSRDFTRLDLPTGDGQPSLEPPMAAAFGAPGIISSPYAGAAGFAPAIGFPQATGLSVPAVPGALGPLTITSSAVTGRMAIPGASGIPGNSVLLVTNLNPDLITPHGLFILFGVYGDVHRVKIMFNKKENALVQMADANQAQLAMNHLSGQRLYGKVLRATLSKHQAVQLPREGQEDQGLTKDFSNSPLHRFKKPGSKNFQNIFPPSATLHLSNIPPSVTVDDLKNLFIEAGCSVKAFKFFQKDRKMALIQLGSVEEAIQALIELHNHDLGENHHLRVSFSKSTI
UniProt P67809: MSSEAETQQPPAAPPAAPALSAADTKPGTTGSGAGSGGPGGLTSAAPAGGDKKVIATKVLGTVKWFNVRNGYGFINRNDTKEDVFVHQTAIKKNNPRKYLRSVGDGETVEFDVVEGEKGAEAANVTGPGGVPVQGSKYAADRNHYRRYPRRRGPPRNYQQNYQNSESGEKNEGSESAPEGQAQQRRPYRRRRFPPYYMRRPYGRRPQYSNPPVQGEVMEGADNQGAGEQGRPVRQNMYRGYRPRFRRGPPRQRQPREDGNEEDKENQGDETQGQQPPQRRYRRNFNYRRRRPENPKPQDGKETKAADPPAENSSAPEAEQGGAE

In the assay the target is Polypyrimidine tract-binding protein 3 (PTBP3), Flag-tagged (human) (UniProt O95758). In words: affinity purification with mass spectrometry; Flag-tag pull-down of PTBP3 followed by LC-MS; cell line and conditions not stated.

Turning to YBX1 (from UniProt P67809 1-324), the binding entry was “binds”.

B1: UPF1 (protein, UniProt Q92900 1-1129)
chain: MSVEAYGPSSQTLTFLDTEEAELLGADTQGSEFEFTDFTLPSQTQTPPGGPGGPGGGGAGGPGGAGAGAAAGQLDAQVGPEGILQNGAVDDSVAKTSQLLAELNFEEDEEDTYYTKDLPIHACSYCGIHDPACVVYCNTSKKWFCNGRGNTSGSHIVNHLVRAKCKEVTLHKDGPLGETVLECYNCGCRNVFLLGFIPAKADSVVVLLCRQPCASQSSLKDINWDSSQWQPLIQDRCFLSWLVKIPSEQEQLRARQITAQQINKLEELWKENPSATLEDLEKPGVDEEPQHVLLRYEDAYQYQNIFGPLVKLEADYDKKLKESQTQDNITVRWDLGLNKKRIAYFTLPKTDSGNEDLVIIWLRDMRLMQGDEICLRYKGDLAPLWKGIGHVIKVPDNYGDEIAIELRSSVGAPVEVTHNFQVDFVWKSTSFDRMQSALKTFAVDETSVSGYIYHKLLGHEVEDVIIKCQLPKRFTAQGLPDLNHSQVYAVKTVLQRPLSLIQGPPGTGKTVTSATIVYHLARQGNGPVLVCAPSNIAVDQLTEKIHQTGLKVVRLCAKSREAIDSPVSFLALHNQIRNMDSMPELQKLQQLKDETGELSSADEKRYRALKRTAERELLMNADVICCTCVGAGDPRLAKMQFRSILIDESTQATEPECMVPVVLGAKQLILVGDHCQLGPVVMCKKAAKAGLSQSLFERLVVLGIRPIRLQVQYRMHPALSAFPSNIFYEGSLQNGVTAADRVKKGFDFQWPQPDKPMFFYVTQGQEEIASSGTSYLNRTEAANVEKITTKLLKAGAKPDQIGIITPYEGQRSYLVQYMQFSGSLHTKLYQEVEIASVDAFQGREKDFIILSCVRANEHQGIGFLNDPRRLNVALTRARYGVIIVGNPKALSKQPLWNHLLNYYKEQKVLVEGPLNNLRESLMQFSKPRKLVNTINPGARFMTTAMYDAREAIIPGSVYDRSSQGRPSSMYFQTHDQIGMISAGPSHVAAMNIPIPFNLVMPPMPPPGYFGQANGPAAGRGTPKGKTGRGGRQKNRFGLPGPSQTNLPNSQASQDVASQPFSQGALTQGYISMSQPSQMSQPGLSQPELSQDSYLGDEFKSQIDVALSQDSTYQGERAYQHGGVTGLSQY
On to B1, for which the binding entry is “binds”.

B2: HNRNPM (protein, UniProt P52272 1-730)
chain: MAAGVEAAAEVAATEIKMEEESGAPGVPSGNGAPGPKGEGERPAQNEKRKEKNIKRGGNRFEPYANPTKRYRAFITNIPFDVKWQSLKDLVKEKVGEVTYVELLMDAEGKSRGCAVVEFKMEESMKKAAEVLNKHSLSGRPLKVKEDPDGEHARRAMQKVMATTGGMGMGPGGPGMITIPPSILNNPNIPNEIIHALQAGRLGSTVFVANLDYKVGWKKLKEVFSMAGVVVRADILEDKDGKSRGIGTVTFEQSIEAVQAISMFNGQLLFDRPMHVKMDERALPKGDFFPPERPQQLPHGLGGIGMGLGPGGQPIDANHLNKGIGMGNIGPAGMGMEGIGFGINKMGGMEGPFGGGMENMGRFGSGMNMGRINEILSNALKRGEIIAKQGGGGGGGSVPGIERMGPGIDRLGGAGMERMGAGLGHGMDRVGSEIERMGLVMDRMGSVERMGSGIERMGPLGLDHMASSIERMGQTMERIGSGVERMGAGMGFGLERMAAPIDRVGQTIERMGSGVERMGPAIERMGLSMERMVPAGMGAGLERMGPVMDRMATGLERMGANNLERMGLERMGANSLERMGLERMGANSLERMGPAMGPALGAGIERMGLAMGGGGGASFDRAIEMERGNFGGSFAGSFGGAGGHAPGVARKACQIFVRNLPFDFTWKMLKDKFNECGHVLYADIKMENGKSKGCGVVKFESPEVAERACRMMNGMKLSGREIDVRIDRNA
Take B2: the binding entry is recorded as “binds”.

Values taken from paper PMC6622005.
